Results are given in words; binding and its absence hold for the method and conditions named. Some binding calls cover weakened binding; strength is not graded here.

Results on one molecule are retold here after PMC7244012.

The target of this experiment is T1, human anti-Müllerian hormone receptor type II on AMHR2-OVCAR8 cells (human) (UniProt Q16671).
T1 sequence: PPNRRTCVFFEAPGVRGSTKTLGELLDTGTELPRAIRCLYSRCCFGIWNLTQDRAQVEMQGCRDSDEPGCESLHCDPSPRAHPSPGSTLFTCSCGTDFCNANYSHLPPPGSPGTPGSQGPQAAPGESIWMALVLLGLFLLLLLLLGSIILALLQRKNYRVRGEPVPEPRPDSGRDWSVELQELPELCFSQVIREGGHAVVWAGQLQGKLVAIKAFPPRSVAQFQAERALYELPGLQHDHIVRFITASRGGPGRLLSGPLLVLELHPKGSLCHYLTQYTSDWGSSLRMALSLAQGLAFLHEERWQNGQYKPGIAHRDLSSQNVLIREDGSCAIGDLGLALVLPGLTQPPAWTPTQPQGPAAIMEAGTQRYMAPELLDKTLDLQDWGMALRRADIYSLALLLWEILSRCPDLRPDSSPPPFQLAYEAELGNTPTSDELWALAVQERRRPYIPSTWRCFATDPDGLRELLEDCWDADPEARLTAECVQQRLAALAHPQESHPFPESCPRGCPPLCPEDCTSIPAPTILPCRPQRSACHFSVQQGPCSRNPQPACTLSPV
The experiment can be described thus: flow cytometry on cells; competition: recombinant human AMH at increasing doses against the 4D12G1 mAb for binding to AMHR2-OVCAR8 cells; Fc-receptor block; detection with FITC-labeled goat anti-mouse IgG; only the binder purified.

B1: recombinant human anti-Müllerian hormone (ligand, UniProt P03971 452-560)
chain: SAGATAADGPCALRELSVDLRAERSVLIPETYQANNCQGVCGWPQSDRNPRYGNHVVLLLKMQVRGAALARPPCCVPTAYAGKLLISLSEERISAHHVPNMVATECGCR
Turning to B1, the binding result is given as “binds”.
